Results published in US20040115706A1, “High-throughput methods for identifying quadruplex forming nucleic acids and modulators thereof” (priority 2002, published 2004).
At least one structure is not confirmed: it was looked up by name or label, or the drawing left a doubt.

Tested on: quadruplex nucleic acid QB-1
Assay: Competition of test molecules with NMM for quadruplex nucleic acid QB-1
Assay type: binding
Details: QB-1 5 μM, NMM 3 μM; FIG. 3
Experimental: Test molecules were mixed with the quadruplex nucleic acid QB-1 in a 96-well plate and fluorescence backgrounds were monitored under the conditions specified in Example 1. NMM was then added to wells in the 96-well plate to a final concentration of 3 μM. Fluorescence of NMM was measured at an excitation wavelength of 420 nm and an emission wavelength of 660 nm using a FluoStar 2000 fluorometer (BMG Labtechnologies, Durham, N.C.). Maximum fluorescent signals for NMM were assessed in the absence of the test molecules. Fluorescence was plotted as a function of the concentration of three test molecules with constant concentrations of QB-1 (5 μM) and NMM (3 μM)(FIG. 3). The test compounds were telomestatin, QQ28, and serinodisaphyrin (see, e.g., Shin-ya et al., J. Am. Chem. Soc. 123:1262 (2001); Duan et al., Mol. Cancer Therapeutics 1:103 (2001)).

Cc1oc2nc1-c1nc(co1)-c1nc(co1)-c1nc(co1)-c1nc(co1)-c1nc(co1)C1=NC(CS1)c1nc-2c(C)o1 (stereo not shown) [telomestatin]
identification as quadruplex interacting molecule: identified as quadruplex interacting molecules
